The target in this assay is T1, FLAG-tagged viperin (human) (human) (UniProt Q8WXG1).
T1 sequence: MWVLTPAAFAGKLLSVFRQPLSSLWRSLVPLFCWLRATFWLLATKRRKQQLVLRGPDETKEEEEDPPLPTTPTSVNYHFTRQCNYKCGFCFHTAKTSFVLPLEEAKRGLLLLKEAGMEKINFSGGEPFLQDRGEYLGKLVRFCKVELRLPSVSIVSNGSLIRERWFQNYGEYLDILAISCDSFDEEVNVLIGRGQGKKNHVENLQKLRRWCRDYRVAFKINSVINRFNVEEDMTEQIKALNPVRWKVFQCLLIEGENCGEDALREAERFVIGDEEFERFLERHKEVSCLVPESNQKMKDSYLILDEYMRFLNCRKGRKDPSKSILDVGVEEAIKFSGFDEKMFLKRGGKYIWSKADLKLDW
The assay is described as follows: co-IP.

No constants are given. Whether binding was seen depends on the method and setting. Binding seen in cells or lysates may run through a third protein. Some binding calls cover weakened binding; strength is not graded here. Tags and fused reporters may be left off the sequences shown.

On to “interleukin-1 receptor-associated kinase-1 (IRAK1), N-terminal Myc tag (from UniProt P51617-1 1-712) (enzyme)”, for which the binding entry was “binds”.

Values taken from publication doi:10.1101/318840.
